Test results taken from PMC12431657, “Discovery and mechanistic insights of dibenzoylmethane as a broad spectrum inhibitor of coronavirus” (PLOS Pathogens, 2025).
Structures can show the parent of a compound that is named as a salt. Where two headings read alike, the source gives them in different places. About 95 (3%) of roughly 3,300 compounds showed an effect of 50% or more. This is one part of the list. Bridge positions count the residues as written; N and C are the ends. Square brackets hold non-standard residues; d marks the D form. Peptide text beside a SMILES is read from it. * marks the point of attachment. NMePhe(4-NMe2) = CN[C@@H](Cc1ccc(N(C)C)cc1)C(=O)O; Pip(4-oxo) = O=C1CCN[C@H](C(=O)O)C1; Picolinoyl(3-OH) = O=C(c1ncccc1O)*; Phg = N[C@H](C(=O)O)c1ccccc1; dAbu = CC[C@@H](N)C(=O)O

System: HCoV-229E
Design: species or system Huh-7; HTS, protection from HCoV-229E induced cell death, luminescent cell viability (CellCounting-Lite 2.0), inhibition rate
Conditions: 24 h post infection, 1 h compound pre-incubation, 10 µM, inhibitor

SMILES	229E Inhibition rate	229E Inhibition rate (229E Inhibition rate, 24 h)
CC(C)(O)C(=O)O [2-Hydroxyisobutyric acid]	11.8%	
C/C=C(/C)C(=O)O[C@H]1Cc2cc3ccc(=O)oc3cc2OC1(C)C [Decursinol angelate]	18.2%	
O=C(O)c1cccc(Oc2ccccc2)c1 [3-Phenoxybenzoic acid]	9.2%	
CCCCCCCC/C=C\CCCCCCCC(=O)NCC(=O)O [N-Oleoyl glycine]	9%	
Cc1cc(=O)oc2cc(O)cc(O)c12 [5,7-Dihydroxy-4-methylcoumarin]	8.3%	
O=c1cc(-c2ccccc2)oc2cc(O)ccc12 [7-Hydroxyflavone]	36.4%	
OCC(O)[C@@H](O)[C@H](O)[C@H](O)CO[C@H]1O[C@H](CO)[C@@H](O)[C@H](O)[C@H]1O (stereo partly shown) [Isomalt]	20.9%	
C[C@@H]1CC[C@@]2(OC1)O[C@H]1C[C@H]3[C@@H]4CC[C@H]5C[C@@H](O[C@@H]6O[C@H](CO)[C@H](O[C@@H]7O[C@H](CO)[C@@H](O)[C@H](O[C@@H]8OC[C@@H](O)[C@H](O)[C@H]8O)[C@H]7O[C@@H]7O[C@H](CO)[C@H](O)[C@H](O)[C@H]7O)[C@H](O)[C@H]6O)CC[C@]5(C)[C@H]4CC(=O)[C@]3(C)[C@H]1[C@@H]2C [Terrestrosin D]	6.7%	
CC(=O)N[C@@H](CCCCN)C(=O)O [Acetyl-L-lysine]	15.8%	
CC(C)=CCc1c(O)cc(O)c2c(=O)c(O[C@@H]3O[C@@H](C)[C@H](O)[C@@H](O)[C@H]3O)c(-c3ccc(O)cc3)oc12 [IKarisoside A]	0%	
COc1ccc2ccc(=O)oc2c1CC=C(C)C [Osthole]	4.6%	
CC(C)=CCC[C@](C)(O[C@@H]1O[C@H](CO)[C@@H](O)[C@H](O)[C@H]1O)[C@H]1CC[C@]2(C)[C@@H]1[C@H](O)C[C@@H]1[C@@]3(C)CC[C@H](O)C(C)(C)[C@@H]3[C@@H](O[C@@H]3O[C@H](CO)[C@@H](O)[C@H](O)[C@H]3O[C@@H]3O[C@@H](C)[C@H](O)[C@@H](O)[C@H]3O)C[C@]12C [Ginsenoside Re]	9.3%	
CC1=C(/C=C/C(C)=C/C=C/C(C)=C/C(=O)O)C(C)(C)CCC1 [Retinoic acid]	34.7%	
O=C(/C=C/c1ccc(O)c(O)c1)O[C@@H]1C[C@@](OC(=O)/C=C/c2ccc(O)c(O)c2)(C(=O)O)C[C@@H](O)[C@@H]1O [Cynarin]	18.7%	
O=C(/C=C/c1ccc(O)cc1)c1ccccc1 [4-Hydroxychalcone]		12%
COc1cc2c(cc1OC)-c1cc3ccc(OC)c(O)c3c[n+]1CC2 [Palmaturbine (hydroxide)]		9.8%
CC(C)=CC[C@@H](O)C1=CC(=O)c2c(O)ccc(O)c2C1=O [Shikonin]	2%	
O=C(O)c1ccc(O)c(O)c1O [2,3,4-Trihydroxybenzoic acid]	18%	
C[C@@H]1CC[C@@]2(NC1)O[C@H]1C[C@H]3[C@@H]4CC=C5C[C@@H](O[C@@H]6O[C@H](CO)[C@H](O)[C@H](O[C@@H]7O[C@H](CO)[C@@H](O)[C@H](O)[C@H]7O)[C@H]6O[C@@H]6O[C@@H](C)[C@H](O)[C@@H](O)[C@H]6O)CC[C@]5(C)[C@H]4CC[C@]3(C)[C@H]1[C@@H]2C [Solasonine]	8.1%	
O=c1oc2cc(O)ccc2c2ccc(O)cc12 [Urolithin A]	8.6%	
CC[C@H](CC[C@@H](C)[C@H]1CC[C@H]2[C@@H]3CC=C4C[C@@H](O)CC[C@]4(C)[C@H]3CC[C@]12C)C(C)C [Beta-Sitosterol (purity>80%)]		9.6%
COc1cc2oc(-c3ccc(O)c(O)c3)c(OC)c(=O)c2c(O)c1OC [Chrysosplenol D]	29.6%	
C=C1C(=O)O[C@H]2C[C@H](C)C(/C=C/C(C)=O)=CC[C@H]12 [Xanthatin]	11.2%	
CC(=O)O[C@@H]1[C@@H](OC(C)=O)[C@@H](O)[C@H](Oc2c(-c3ccc(O)cc3)oc3cc(O)cc(O)c3c2=O)O[C@H]1C [SL 0101-1]	31.7%	
C[C@H]1O[C@@H](O[C@H]2CC[C@@]3(C)[C@@H](CC[C@]4(C)[C@@H]3C=CC3=C5CC(C)(C)CC[C@]5(CO)[C@H](O)C[C@]34C)[C@]2(C)CO)[C@H](O)[C@@H](O)[C@H]1O [Prosaikogenin D]	5.5%	
C[C@@H]1O[C@@H](c2c(O)c([C@@H]3O[C@H](CO)[C@@H](O)[C@H](O)[C@H]3O)c(O)c3c(=O)cc(-c4ccc(O)cc4)oc23)[C@H](O)[C@H](O)[C@H]1O [Violanthin]	46.3%	

Retrieved by structure from above:
SMILES	229E Inhibition rate	229E Inhibition rate (229E Inhibition rate, 24 h)
Cc1cc(=O)oc2cc(O)cc(O)c12 [5,7-Dihydroxy-4-methylcoumarin]	8.3%	
CC(C)(O)C(=O)O [2-Hydroxyisobutyric acid]	11.8%	

The listing continues.

SMILES	229E Inhibition rate	229E Inhibition rate (229E Inhibition rate, 24 h)
C[C@H](O)[C@H](O)[C@@H](O)[C@@H](O)C=O [Rhamnose (monohydrate)]	9.5%	
Oc1nc(O)c2cn[nH]c2n1 [Oxypurinol]	38%	
CCn1cnc2c(N)ncnc21 [9-Ethyladenine]	16.7%	
C=C(C)[C@@H]1CC=C(/C=N/O)CC1 [Perillartine]	15.2%	
CC[C@H]1NC(=O)[C@@H](NC(=O)c2ncccc2O)[C@@H](C)OC(=O)[C@H](c2ccccc2)NC(=O)[C@@H]2CC(=O)CCN2C(=O)[C@H](Cc2ccc(N(C)C)cc2)N(C)C(=O)[C@@H]2CCCN2C1=O [Pristinamycin IA] ({Picolinoyl(3-OH)}-T[dAbu]P[NMePhe(4-NMe2)][Pip(4-oxo)][Phg]; ester 1-C)	24.5%	
COC(=O)c1ccccc1C(=O)OC [Dimethyl phthalate]	5.7%	
C[C@H](CC[C@@H](O[C@@H]1O[C@H](CO[C@@H]2O[C@H](CO)[C@@H](O)[C@H](O)[C@H]2O)[C@@H](O)[C@H](O)[C@H]1O)C(C)(C)O)[C@H]1CC[C@@]2(C)[C@@H]3CC=C4[C@@H](CC[C@H](O[C@@H]5O[C@H](CO[C@@H]6O[C@H](CO)[C@@H](O)[C@H](O)[C@H]6O)[C@@H](O)[C@H](O)[C@H]5O)C4(C)C)[C@]3(C)[C@H](O)C[C@]12C [Mogroside IV-A]	32.3%	
CC(C)CCC1(O)O[C@H]2[C@H](O)[C@H]3[C@@H]4CC[C@@H]5C[C@@H](O[C@@H]6O[C@H](CO)[C@H](O)[C@H](O)[C@H]6O[C@@H]6O[C@H](CO)[C@@H](O)[C@H](O)[C@H]6O)CC[C@]5(C)[C@H]4CC[C@]3(C)[C@H]2[C@@H]1C (stereo partly shown) [Anemarrhenasaponin I]	7.3%	
C=CC(C)(CCC=C(C)C)OC(C)=O (stereo not shown) [Linalyl acetate]	7.5%	
CC[C@H](C)C(=O)O[C@H]1C[C@@H](C)C=C2C=C[C@H](C)[C@H](CC[C@@H]3C[C@@H](O)CC(=O)O3)[C@H]21 [Lovastatin]	23.8%	
CCO[C@H]1O[C@@H]2O[C@@]3(C)CC[C@H]4[C@H](C)CC[C@@H]([C@H]1C)[C@@]24OO3 [Artemotil]	24.5%	
O=c1c(O[C@@H]2OC[C@H](O)[C@H](O)[C@H]2O)c(-c2ccc(O)c(O)c2)oc2cc(O)cc(O)c12 [Guaijaverin]	20.3%	
COc1ccc2c3c1O[C@H]1C[C@@H](O)C=C[C@@]31CCN(C)C2 [Galanthamine (hydrobromide)]		13.6%
CC(C)C[C@H](N)C(=O)N[C@@H](C)C(=O)O [L-Leucyl-L-alanine] (H-Leu-Ala-OH)	8.7%	
OC[C@H]1OC[C@H](O)[C@@H](O)[C@@H]1O [1,5-Anhydrosorbitol]	12.9%	
O=C1CCC[C@@H]2[C@H]3CCC[N+]4([O-])CCC[C@@H](CN12)[C@@H]34 (stereo partly shown) [Oxymatrine]	13.1%	
COc1ccc(C)cc1 [4-Methylanisole]	10.3%	
C=C[C@@H]1C2=CCOC(=O)C2=CO[C@H]1O[C@@H]1O[C@H](CO[C@@H]2O[C@H](CO)[C@@H](O)[C@H](O)[C@H]2O)[C@@H](O)[C@H](O)[C@H]1O [6'-O-beta-D-Glucosylgentiopicroside]	5.9%	
CC(=O)N[C@@H](CS)C(=O)O [Acetylcysteine]	39.5%	
C[C@@H]1O[C@@H](O[C@H]2[C@H](OC(=O)[C@]34CCC(C)(C)C[C@H]3C3=CC[C@@H]5[C@@]6(C)C[C@H](O)[C@H](O[C@@H]7O[C@H](CO)[C@@H](O)[C@H](O)[C@H]7O)[C@@](C)(CO)[C@@H]6CC[C@@]5(C)[C@]3(C)C[C@H]4O)OC[C@H](O)[C@@H]2O)[C@H](O)[C@H](O)[C@H]1O[C@@H]1OC[C@@H](O)[C@H](O[C@@H]2OC[C@](O)(CO)[C@H]2O)[C@H]1O [Polygalacin D]	16.7%	
COc1cc2oc(-c3ccccc3)cc(=O)c2c(O)c1OC [Mosloflavone]	24%	
Cc1ccccc1C(=O)O [o-Toluic acid]	0%	
CCCC(=O)OC(CC(=O)[O-])C[N+](C)(C)C (stereo not shown) [Butyrylcarnitine]	14%	
C[C@H]1CC[C@]2(C(=O)O)CC[C@]3(C)C(=CC[C@@H]4[C@@]5(C)CC[C@H](O[C@@H]6OC[C@@H](O)[C@H](O)[C@H]6O[C@@H]6O[C@H](CO)[C@@H](O)[C@H](O)[C@H]6O)C(C)(C)[C@@H]5CC[C@]43C)[C@@H]2[C@]1(C)O [Ilexoside D]	9.2%	
C=C1C[C@]2(O)O[C@@]3(CC2=C(C)C)[C@@H](C)CC[C@@H]13 [Isocurcumenol]	10.7%	
O=c1cc(-c2ccccc2)oc2cc(O)c(O)c(O)c12 [Baicalein]	34.3%	
